Experimental data reported in paper PMC4434891, “The Smc5-Smc6 heterodimer associates with DNA through several independent binding domains” (Scientific Reports, 2015).
These are yes or no findings as the source states them, for the method shown. In cells and extracts the contact can be indirect. Some binding calls cover weakened binding; strength is not graded here. Blank lines part the entries; values can stand above or below the binder they belong to.

How the values were obtained:
Assay in all cases: pull-down + SEC; sequential co-purification from bacterial lysate by the tag of each subunit: Ni-NTA (His9 on Smc5), then Strep-Tactin (Strep-TagII on Smc6), then Superose 6 or 12 in buffer C (25 mM potassium phosphate pH 8.0, 500 mM NaCl, 10% glycerol, 0.2% Tween 20, 2 mM 2-ME, 1 mM EDTA); fragments overexpressed in combination or individually
[1] = target: T1, Smc5 HM (hinge medium; Smc5 residues 300-to-803) (UniProt Q08204)
T1 sequence: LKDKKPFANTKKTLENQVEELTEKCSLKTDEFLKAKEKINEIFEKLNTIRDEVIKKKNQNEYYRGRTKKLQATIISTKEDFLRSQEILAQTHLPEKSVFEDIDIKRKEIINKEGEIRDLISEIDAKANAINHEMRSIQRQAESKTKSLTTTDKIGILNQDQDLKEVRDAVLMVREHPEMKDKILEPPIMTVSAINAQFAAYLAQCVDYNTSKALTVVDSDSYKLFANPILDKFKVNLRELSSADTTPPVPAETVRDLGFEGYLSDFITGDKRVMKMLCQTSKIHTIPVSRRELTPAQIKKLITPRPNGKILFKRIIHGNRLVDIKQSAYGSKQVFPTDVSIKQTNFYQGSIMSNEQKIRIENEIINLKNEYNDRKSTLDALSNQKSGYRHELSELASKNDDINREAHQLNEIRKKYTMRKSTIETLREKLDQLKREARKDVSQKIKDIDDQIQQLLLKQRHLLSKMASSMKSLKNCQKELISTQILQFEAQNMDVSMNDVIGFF

[2] = target: T2, Smc5 HL (hinge long; Smc5 residues 215-to-885) (UniProt Q08204)
T2 sequence: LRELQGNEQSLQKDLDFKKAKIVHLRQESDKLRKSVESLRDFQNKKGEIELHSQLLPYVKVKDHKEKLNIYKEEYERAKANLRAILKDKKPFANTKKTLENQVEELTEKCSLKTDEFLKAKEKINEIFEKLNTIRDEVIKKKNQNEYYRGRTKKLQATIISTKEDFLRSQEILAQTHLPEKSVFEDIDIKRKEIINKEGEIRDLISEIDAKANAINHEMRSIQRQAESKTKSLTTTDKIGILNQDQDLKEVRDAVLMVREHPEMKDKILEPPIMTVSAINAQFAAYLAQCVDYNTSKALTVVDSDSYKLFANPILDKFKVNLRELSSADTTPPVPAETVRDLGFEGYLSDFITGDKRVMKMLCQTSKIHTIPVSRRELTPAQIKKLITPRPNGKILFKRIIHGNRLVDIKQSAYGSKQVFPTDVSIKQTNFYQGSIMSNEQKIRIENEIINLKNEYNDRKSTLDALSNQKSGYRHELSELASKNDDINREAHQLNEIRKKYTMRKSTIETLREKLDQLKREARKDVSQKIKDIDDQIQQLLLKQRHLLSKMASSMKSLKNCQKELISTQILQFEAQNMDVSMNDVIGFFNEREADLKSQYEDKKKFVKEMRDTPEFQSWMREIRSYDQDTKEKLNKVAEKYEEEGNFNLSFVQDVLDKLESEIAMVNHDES

[3] = target: T3, Smc5 HS (hinge short; Smc5 residues 428-to-675) (UniProt Q08204)
T3 sequence: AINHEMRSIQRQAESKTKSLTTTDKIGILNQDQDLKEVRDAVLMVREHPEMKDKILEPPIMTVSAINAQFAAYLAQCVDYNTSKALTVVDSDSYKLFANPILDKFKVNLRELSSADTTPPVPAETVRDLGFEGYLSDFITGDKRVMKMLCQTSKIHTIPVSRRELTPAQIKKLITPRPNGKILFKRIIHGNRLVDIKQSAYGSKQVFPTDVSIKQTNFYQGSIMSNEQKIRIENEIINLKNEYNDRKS

binding [1]: binds
B1: Smc6 HM (hinge medium; Smc6 residues 350-to-868) (domain or fragment, UniProt Q12749 350-868)
chain: KIERYTSDGTTIEAQIDAKVIYVNEKDSEHQNARELLRDVKSRFEKEKSNQAEAQSNIDQGRKKVDALNKTIAHLEEELTKEMGGDKDQMRQELEQLEKANEKLREVNNSLVVSLQDVKNEERDIQHERESELRTISRSIQNKKVELQNIAKGNDTFLMNFDRNMDRLLRTIEQRKNEFETPAIGPLGSLVTIRKGFEKWTRSIQRAISSSLNAFVVSNPKDNRLFRDIMRSCGIRSNIPIVTYCLSQFDYSKGRAHGNYPTIVDALEFSKPEIECLFVDLSRIERIVLIEDKNEARNFLQRNPVNVNMALSLRDRRSGFQLSGGYRLDTVTYQDKIRLKVNSSSDNGTQYLKDLIEQETKELQNIRDRYEEKLSEVRSRLKEIDGRLKSTKNEMRKTNFRMTELKMNVGKVVDTGILNSKINERKNQEQAIASYEAAKEELGLKIEQIAQEAQPIKEQYDSTKLALVEAQDELQQLKEDINSRQSKIQKYKDDTIYYEDKKKVYLENIKKIEVNVAAL

binding [2]: binds
B2: Smc6 HL (hinge long; Smc6 residues 260-to-970) (domain or fragment, UniProt Q12749 260-970)
chain: SAIHDSAQENMALHLENLKSLKAEYEDAKKLLRELNQTSDLNERKMLLQAKSLWIDVAHNTDACKNLENEISGIQQKVDEVTEKIRNRQEKIERYTSDGTTIEAQIDAKVIYVNEKDSEHQNARELLRDVKSRFEKEKSNQAEAQSNIDQGRKKVDALNKTIAHLEEELTKEMGGDKDQMRQELEQLEKANEKLREVNNSLVVSLQDVKNEERDIQHERESELRTISRSIQNKKVELQNIAKGNDTFLMNFDRNMDRLLRTIEQRKNEFETPAIGPLGSLVTIRKGFEKWTRSIQRAISSSLNAFVVSNPKDNRLFRDIMRSCGIRSNIPIVTYCLSQFDYSKGRAHGNYPTIVDALEFSKPEIECLFVDLSRIERIVLIEDKNEARNFLQRNPVNVNMALSLRDRRSGFQLSGGYRLDTVTYQDKIRLKVNSSSDNGTQYLKDLIEQETKELQNIRDRYEEKLSEVRSRLKEIDGRLKSTKNEMRKTNFRMTELKMNVGKVVDTGILNSKINERKNQEQAIASYEAAKEELGLKIEQIAQEAQPIKEQYDSTKLALVEAQDELQQLKEDINSRQSKIQKYKDDTIYYEDKKKVYLENIKKIEVNVAALKEGIQRQIQNACAFCSKERIENVDLPDTQEEIKRELDKVSRMIQKAEKSLGLSQEEVIALFEKCRNKYKEGQKKYMEIDEALNRLHNSLKARDQNYKNAEKG

binding [3]: binds
B3: Smc6 HS (hinge short; Smc6 residues 486-to-732) (domain or fragment, UniProt Q12749 486-732)
chain: SRSIQNKKVELQNIAKGNDTFLMNFDRNMDRLLRTIEQRKNEFETPAIGPLGSLVTIRKGFEKWTRSIQRAISSSLNAFVVSNPKDNRLFRDIMRSCGIRSNIPIVTYCLSQFDYSKGRAHGNYPTIVDALEFSKPEIECLFVDLSRIERIVLIEDKNEARNFLQRNPVNVNMALSLRDRRSGFQLSGGYRLDTVTYQDKIRLKVNSSSDNGTQYLKDLIEQETKELQNIRDRYEEKLSEVRSRLKE
